Assay results: PMC10098032
No constants are given. Whether binding was seen depends on the method and setting. Binding seen in cells or lysates may run through a third protein. Some entries that bind do so weakly or less than the wild type.

Protein sequences, listed by entry. Tags and fused reporters are not part of them. Residues count along the entry.
UniProt B2RSH2: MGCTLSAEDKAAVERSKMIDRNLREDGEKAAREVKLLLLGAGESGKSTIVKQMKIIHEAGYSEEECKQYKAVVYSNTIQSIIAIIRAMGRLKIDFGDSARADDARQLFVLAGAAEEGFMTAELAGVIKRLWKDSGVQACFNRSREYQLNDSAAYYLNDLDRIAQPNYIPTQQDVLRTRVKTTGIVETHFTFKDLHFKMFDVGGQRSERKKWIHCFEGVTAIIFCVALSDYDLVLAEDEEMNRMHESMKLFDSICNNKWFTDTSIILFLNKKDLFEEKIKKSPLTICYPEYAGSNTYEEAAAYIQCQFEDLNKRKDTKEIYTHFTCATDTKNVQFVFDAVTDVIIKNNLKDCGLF
UniProt Q9DC51: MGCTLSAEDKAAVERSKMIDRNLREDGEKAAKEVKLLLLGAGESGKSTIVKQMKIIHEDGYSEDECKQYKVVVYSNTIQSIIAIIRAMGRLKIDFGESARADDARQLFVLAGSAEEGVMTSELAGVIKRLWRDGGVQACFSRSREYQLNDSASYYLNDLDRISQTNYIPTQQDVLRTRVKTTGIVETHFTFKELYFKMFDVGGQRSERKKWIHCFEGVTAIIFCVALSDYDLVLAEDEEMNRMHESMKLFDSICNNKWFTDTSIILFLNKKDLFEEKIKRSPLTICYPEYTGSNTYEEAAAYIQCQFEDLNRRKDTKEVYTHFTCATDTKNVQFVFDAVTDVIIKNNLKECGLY
UniProt Q5NCP0, residues 24-784: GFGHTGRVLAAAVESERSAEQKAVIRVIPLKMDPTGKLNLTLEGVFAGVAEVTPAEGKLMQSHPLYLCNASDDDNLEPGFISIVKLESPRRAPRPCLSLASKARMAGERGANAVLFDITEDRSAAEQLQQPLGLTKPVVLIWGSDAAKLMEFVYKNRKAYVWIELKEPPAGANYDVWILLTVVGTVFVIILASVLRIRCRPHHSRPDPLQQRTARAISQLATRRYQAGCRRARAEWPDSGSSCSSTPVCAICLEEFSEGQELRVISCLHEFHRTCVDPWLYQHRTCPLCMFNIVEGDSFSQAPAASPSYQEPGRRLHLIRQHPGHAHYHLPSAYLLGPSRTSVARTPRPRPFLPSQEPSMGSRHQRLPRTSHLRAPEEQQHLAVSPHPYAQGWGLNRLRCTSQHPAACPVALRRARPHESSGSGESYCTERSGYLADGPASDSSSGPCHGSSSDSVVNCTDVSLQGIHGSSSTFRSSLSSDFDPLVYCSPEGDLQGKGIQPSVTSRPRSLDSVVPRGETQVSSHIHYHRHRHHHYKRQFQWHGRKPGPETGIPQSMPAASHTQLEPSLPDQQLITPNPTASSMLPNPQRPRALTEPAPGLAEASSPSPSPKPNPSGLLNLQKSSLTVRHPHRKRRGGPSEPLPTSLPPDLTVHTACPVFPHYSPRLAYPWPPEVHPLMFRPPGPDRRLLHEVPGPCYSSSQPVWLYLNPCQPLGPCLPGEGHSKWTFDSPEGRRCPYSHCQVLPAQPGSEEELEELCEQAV

Tests used:
Assay in all cases: co-IP; WT MEFs treated with RSPO3, endogenous proteins; which protein was precipitated is not given
[1] = target: T1, Grb2-associated binder 1 (Gab1) (mouse (endogenous in MEFs)) (UniProt Q9QYY0)
T1 sequence: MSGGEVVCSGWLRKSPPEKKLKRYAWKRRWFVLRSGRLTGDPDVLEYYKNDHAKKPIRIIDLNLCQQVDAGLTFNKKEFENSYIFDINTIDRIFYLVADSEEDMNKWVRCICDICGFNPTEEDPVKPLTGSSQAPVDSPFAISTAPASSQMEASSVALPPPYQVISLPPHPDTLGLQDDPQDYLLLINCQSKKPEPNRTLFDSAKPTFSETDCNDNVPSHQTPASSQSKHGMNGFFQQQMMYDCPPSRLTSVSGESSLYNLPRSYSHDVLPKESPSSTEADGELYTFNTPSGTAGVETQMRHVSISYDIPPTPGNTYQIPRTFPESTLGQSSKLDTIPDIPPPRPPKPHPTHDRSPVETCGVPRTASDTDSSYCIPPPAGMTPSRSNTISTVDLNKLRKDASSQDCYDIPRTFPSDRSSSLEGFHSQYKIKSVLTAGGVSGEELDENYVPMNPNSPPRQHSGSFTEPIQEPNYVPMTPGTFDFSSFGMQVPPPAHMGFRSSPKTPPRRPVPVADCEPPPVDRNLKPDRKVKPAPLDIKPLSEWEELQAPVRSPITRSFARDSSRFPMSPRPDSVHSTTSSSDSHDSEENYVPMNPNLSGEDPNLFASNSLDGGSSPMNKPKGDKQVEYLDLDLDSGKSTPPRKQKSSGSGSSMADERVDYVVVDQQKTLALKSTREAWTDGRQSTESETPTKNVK

[2] = target: T2, leucine-rich repeat G protein-coupled receptor 4 (LGR4) (mouse (endogenous in MEFs)) (UniProt A2ARI4)
T2 sequence: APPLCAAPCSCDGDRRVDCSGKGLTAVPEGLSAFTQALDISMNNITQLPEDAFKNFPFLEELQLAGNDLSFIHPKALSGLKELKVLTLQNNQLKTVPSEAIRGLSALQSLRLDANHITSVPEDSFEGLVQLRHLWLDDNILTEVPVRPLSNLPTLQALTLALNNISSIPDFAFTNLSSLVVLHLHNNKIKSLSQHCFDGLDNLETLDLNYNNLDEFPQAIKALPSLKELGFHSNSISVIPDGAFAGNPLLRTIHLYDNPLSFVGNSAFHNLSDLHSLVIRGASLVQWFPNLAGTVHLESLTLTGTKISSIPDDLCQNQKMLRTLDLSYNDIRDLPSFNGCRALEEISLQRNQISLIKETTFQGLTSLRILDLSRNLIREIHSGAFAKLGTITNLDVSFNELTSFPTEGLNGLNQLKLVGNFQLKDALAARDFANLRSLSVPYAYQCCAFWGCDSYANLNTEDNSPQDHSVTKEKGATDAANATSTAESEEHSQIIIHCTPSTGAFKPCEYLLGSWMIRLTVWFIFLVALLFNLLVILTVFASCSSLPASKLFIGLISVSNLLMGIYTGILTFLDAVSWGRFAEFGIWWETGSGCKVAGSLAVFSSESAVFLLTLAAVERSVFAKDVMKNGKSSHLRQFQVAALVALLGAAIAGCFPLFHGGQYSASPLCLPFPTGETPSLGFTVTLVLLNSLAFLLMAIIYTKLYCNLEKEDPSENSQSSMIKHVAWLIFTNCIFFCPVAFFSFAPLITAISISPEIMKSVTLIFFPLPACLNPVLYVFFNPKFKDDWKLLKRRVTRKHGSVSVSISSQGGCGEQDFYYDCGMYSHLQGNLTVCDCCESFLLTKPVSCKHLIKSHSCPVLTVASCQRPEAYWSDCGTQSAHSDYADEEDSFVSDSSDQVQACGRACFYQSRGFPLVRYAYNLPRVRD

[3] = target: G protein inhibitory α subunit 1 (Gαi1) (mouse (endogenous in MEFs)) (UniProt B2RSH2)
[4] = target: G protein inhibitory α subunit 3 (Gαi3) (mouse (endogenous in MEFs)) (UniProt Q9DC51)

| Substance | binding [1] | binding [2] | binding [3] | binding [4] |
| --- | --- | --- | --- | --- |
| G protein inhibitory α subunit 1 (Gαi1) (from UniProt B2RSH2 1-354) | binds | binds |  |  |
| G protein inhibitory α subunit 3 (Gαi3) (from UniProt Q9DC51 1-354) | binds | binds |  |  |
| ring finger protein 43 (RNF43) (from UniProt Q5NCP0 24-784) | no binding |  | no binding | no binding |
